Measured values: paper PMC12145428
No constants are given. Whether binding was seen depends on the method and setting. In cells and extracts the contact can be indirect. Some results given as binding are weak or reduced against the parent protein; the word gives no strength.

Amino acid sequences for entries named in this document (tags omitted). A change or cut given only in a name is not applied to a line headed by its entry. Chains listed by the source or under a name are the forms on record and can include a tag or linker.
FLAG-tagged MRG15S (plasmid pCMV-3Tag-6-M4S) (P60762, form named): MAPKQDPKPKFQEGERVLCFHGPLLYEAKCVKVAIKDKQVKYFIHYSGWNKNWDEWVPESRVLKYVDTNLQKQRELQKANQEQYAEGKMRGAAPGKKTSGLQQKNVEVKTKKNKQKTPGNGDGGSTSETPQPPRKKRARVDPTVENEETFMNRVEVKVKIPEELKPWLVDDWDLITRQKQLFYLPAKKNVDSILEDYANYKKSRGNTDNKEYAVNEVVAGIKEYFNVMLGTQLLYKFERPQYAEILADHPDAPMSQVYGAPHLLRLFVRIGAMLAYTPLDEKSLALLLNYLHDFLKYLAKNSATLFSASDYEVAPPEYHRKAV
UniProt P26599: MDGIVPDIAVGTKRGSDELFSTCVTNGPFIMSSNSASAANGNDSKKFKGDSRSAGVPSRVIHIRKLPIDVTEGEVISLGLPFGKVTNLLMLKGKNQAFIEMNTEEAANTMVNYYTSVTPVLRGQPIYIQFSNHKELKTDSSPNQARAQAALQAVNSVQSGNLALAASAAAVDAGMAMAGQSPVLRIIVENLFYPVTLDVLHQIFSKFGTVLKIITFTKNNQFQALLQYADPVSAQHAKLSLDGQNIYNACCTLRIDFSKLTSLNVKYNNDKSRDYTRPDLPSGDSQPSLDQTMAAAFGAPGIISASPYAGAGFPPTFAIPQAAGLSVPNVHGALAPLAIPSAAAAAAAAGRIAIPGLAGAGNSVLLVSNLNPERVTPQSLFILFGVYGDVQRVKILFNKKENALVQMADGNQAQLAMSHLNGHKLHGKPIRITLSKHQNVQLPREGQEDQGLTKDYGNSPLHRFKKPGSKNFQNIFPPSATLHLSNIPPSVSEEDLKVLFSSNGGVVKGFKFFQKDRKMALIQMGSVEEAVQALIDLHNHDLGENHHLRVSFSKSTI

target: FLAG-tagged MRG15S (plasmid pCMV-3Tag-6-M4S) (mouse) (UniProt P60762); assay: co-IP; cell lysate with the FLAG-fusion protein on ANTI-FLAG M2 affinity gel overnight at 4 °C; washes in TBS (50 mM Tris-HCl, 150 mM NaCl, pH 7.4); elution with 3×FLAG peptide; Western blot

Row | binding | Molecule
1 | binds | PTBP1 (from UniProt P26599 1-557)
2 | binds | Rb (protein, UniProt P06400 1-928) MPPKTPRKTAATAAAAAAEPPAPPPPPPPEEDPEQDSGPEDLPLVRLEFEETEEPDFTALCQKLKIPDHVRERAWLTWEKVSSVDGVLGGYIQKKKELWGICIFIAAVDLDEMSFTFTELQKNIEISVHKFFNLLKEIDTSTKVDNAMSRLLKKYDVLFALFSKLERTCELIYLTQPSSSISTEINSALVLKVSWITFLLAKGEVLQMEDDLVISFQLMLCVLDYFIKLSPPMLLKEPYKTAVIPINGSPRTPRRGQNRSARIAKQLENDTRIIEVLCKEHECNIDEVKNVYFKNFIPFMNSLGLVTSNGLPEVENLSKRYEEIYLKNKDLDARLFLDHDKTLQTDSIDSFETQRTPRKSNLDEEVNVIPPHTPVRTVMNTIQQLMMILNSASDQPSENLISYFNNCTVNPKESILKRVKDIGYIFKEKFAKAVGQGCVEIGSQRYKLGVRLYYRVMESMLKSEEERLSIQNFSKLLNDNIFHMSLLACALEVVMATYSRSTSQNLDSGTDLSFPWILNVLNLKAFDFYKVIESFIKAEGNLTREMIKHLERCEHRIMESLAWLSDSPLFDLIKQSKDREGPTDHLESACPLNLPLQNNHTAADMYLSPVRSPKKKGSTTRVNSTANAETQATSAFQTQKPLKSTSLSLFYKKVYRLAYLRLNTLCERLLSEHPELEHIIWTLFQHTLQNEYELMRDRHLDQIMMCSMYGICKVKNIDLKFKIIVTAYKDLPHAVQETFKRVLIKEEEYDSIIVFYNSVFMQRLKTNILQYASTRPPTLSPIPHIPRSPYKFPSSPLRIPGGNIYISPLKSPYKISEGLPTPTKMTPRSRILVSIGESFGTSEKFQKINQMVCNSDRVLKRSAEGSNPPKPLKKLRFDIEGSDEADGSKHLPGESKFQQKLAEMTSTRTRMQKQKMNDSMDTSNKEEK
3 | binds | pRb (protein, UniProt P06400 1-928, printed only as pRb (no site given)) MPPKTPRKTAATAAAAAAEPPAPPPPPPPEEDPEQDSGPEDLPLVRLEFEETEEPDFTALCQKLKIPDHVRERAWLTWEKVSSVDGVLGGYIQKKKELWGICIFIAAVDLDEMSFTFTELQKNIEISVHKFFNLLKEIDTSTKVDNAMSRLLKKYDVLFALFSKLERTCELIYLTQPSSSISTEINSALVLKVSWITFLLAKGEVLQMEDDLVISFQLMLCVLDYFIKLSPPMLLKEPYKTAVIPINGSPRTPRRGQNRSARIAKQLENDTRIIEVLCKEHECNIDEVKNVYFKNFIPFMNSLGLVTSNGLPEVENLSKRYEEIYLKNKDLDARLFLDHDKTLQTDSIDSFETQRTPRKSNLDEEVNVIPPHTPVRTVMNTIQQLMMILNSASDQPSENLISYFNNCTVNPKESILKRVKDIGYIFKEKFAKAVGQGCVEIGSQRYKLGVRLYYRVMESMLKSEEERLSIQNFSKLLNDNIFHMSLLACALEVVMATYSRSTSQNLDSGTDLSFPWILNVLNLKAFDFYKVIESFIKAEGNLTREMIKHLERCEHRIMESLAWLSDSPLFDLIKQSKDREGPTDHLESACPLNLPLQNNHTAADMYLSPVRSPKKKGSTTRVNSTANAETQATSAFQTQKPLKSTSLSLFYKKVYRLAYLRLNTLCERLLSEHPELEHIIWTLFQHTLQNEYELMRDRHLDQIMMCSMYGICKVKNIDLKFKIIVTAYKDLPHAVQETFKRVLIKEEEYDSIIVFYNSVFMQRLKTNILQYASTRPPTLSPIPHIPRSPYKFPSSPLRIPGGNIYISPLKSPYKISEGLPTPTKMTPRSRILVSIGESFGTSEKFQKINQMVCNSDRVLKRSAEGSNPPKPLKKLRFDIEGSDEADGSKHLPGESKFQQKLAEMTSTRTRMQKQKMNDSMDTSNKEEK
